These are yes or no findings as the source states them, for the method shown. Some binding calls cover weakened binding; strength is not graded here.
Target: Strep-tagged IniRMtb (Rv0339c, iniBAC Regulator of M. tuberculosis) (M. tuberculosis) (UniProt O33269)
Assay: SDS-PAGE and immunoblot of higher-order bands (IniR multimerization assay); both purified

The chains behind the UniProt entries cited, without tags or fusion partners.
UniProt O33269: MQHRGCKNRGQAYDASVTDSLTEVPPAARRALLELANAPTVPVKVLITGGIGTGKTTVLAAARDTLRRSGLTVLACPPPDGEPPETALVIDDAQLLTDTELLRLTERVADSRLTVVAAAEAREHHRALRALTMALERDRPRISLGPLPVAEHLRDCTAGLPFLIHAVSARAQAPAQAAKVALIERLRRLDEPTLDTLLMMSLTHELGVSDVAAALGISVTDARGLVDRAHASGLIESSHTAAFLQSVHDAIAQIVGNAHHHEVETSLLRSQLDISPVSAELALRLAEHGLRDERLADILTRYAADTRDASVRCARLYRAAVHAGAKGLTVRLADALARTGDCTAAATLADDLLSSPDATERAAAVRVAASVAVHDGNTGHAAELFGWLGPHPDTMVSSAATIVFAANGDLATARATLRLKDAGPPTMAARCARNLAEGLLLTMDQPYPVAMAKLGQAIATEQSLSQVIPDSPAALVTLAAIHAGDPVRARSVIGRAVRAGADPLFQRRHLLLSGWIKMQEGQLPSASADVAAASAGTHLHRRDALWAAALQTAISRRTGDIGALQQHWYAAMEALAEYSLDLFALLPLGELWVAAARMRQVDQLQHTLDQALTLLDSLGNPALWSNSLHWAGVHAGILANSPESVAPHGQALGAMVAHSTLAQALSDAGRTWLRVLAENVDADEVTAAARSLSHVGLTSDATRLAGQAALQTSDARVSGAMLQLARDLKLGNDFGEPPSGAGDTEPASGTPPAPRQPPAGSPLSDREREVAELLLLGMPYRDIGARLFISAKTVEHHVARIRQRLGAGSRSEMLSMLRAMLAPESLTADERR

In the case of “Strep-tagged IniRMtb (Rv0339c, iniBAC Regulator of M. tuberculosis) (from UniProt O33269 1-832)”, the binding is reported as “binds”.
